Results published in patent US20050143453A1, “Selective preventing and therapeutic agents for progressive lesion after organic damage” (priority 2000, published 2005).
At least one compound was matched to its structure with a doubt left.

Test system: kidney of chronic puromycin nephrosis rat
Assay: Puromycin chronic nephrosis model in rat (CPN, Test Example 4)
Type: in vivo
Conditions: 30 mg/kg/day subcutaneously from 8th to 22nd week after puromycin; individual cases
Method: Evaluation Using Puromycin Chronic Nephrosis Model in Rat
Male SD rat of 8 weeks age of about 250 g was used and […] of puromycin were intravenously administered once according to a method of Diamond, et al. (J. R. Diamond, I. Pesek, S. Ruggeri, M. J. Karnovsky: Essential fatty acid deficiency during acute puromycin nephrosis ameliorates late renal injury. Am. J. Physiol, 257: F798˜F807, 1989). There was induced a chronic puromycin nephrosis rat where albuminuria increased from about tenth to twelfth week. After eighth week from administration of puromycin, each of compound (9-1) and compound (6-1) was subcutaneously injected at the dose of 30 mg/kg/day everyday until the 22nd week.
As a functional evaluation of kidney, albumin in urine was measured every week using a kit for the measurement of albumin. On the 22nd week, the rat was killed and anatomized to observe functional and morphological changes of kidney.

For `CCOC(=O)C(=O)CCC(=O)O` [(9-1), ethyl 2-ketoglutarate], the “Albumin in Urine (mg/day)” value was 20, 7, 5, 5, 5, 4 mg/day.
